Measurements reported in PubChem BioAssay AID1224828 (NIAID, 2016)
Purpose: 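Knock-downs that increase or decrease LPS-induced p65 nuclear translocation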 (primary screen). Cell system: mouse RAW264.7 G9 macrophage reporter cells (GFP-p65, Tnf promoter-mCherry). Knock-down reagent: siRNA pool against mouse genes, 100 nM. Time to read-out: 2 days siRNA transfection, then 40 min LPS before fixation. Treatment: LPS (Salmonella minnesota R595) at 10 ng/ml. Read-out: 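Imaged p65 nuclear translocation ratio, normalised to the plate median, converted to robust z-scores and averaged across two replicates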. Scale: p65 translocation robust z-score: higher = more nuclear NF-kappaB p65 after LPS than the plate median; nuclear/cytoplasmic p65 ratio: higher = more nuclear NF-kappaB p65. Hit rule: 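Called active when z exceeds 3.3 or falls under -1.56 (median of Tlr4 controls), giving activity score of at least 50; no calls for control wells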. Meaning of the calls: active = hit (p65 shift raised or lowered); inactive = no clear change.
Shown is a random part of about 17,000 reagents. Over the whole deposit, 762 (4.5%) were called active. 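Active calls include both raised and lowered p65 entry, mostly lowered; wells with fewer than 50 cells lack a z-score.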 Raw values vary from plate to plate and are shown uncorrected.

| gene symbol | p65 translocation robust z-score | nuclear/cytoplasmic p65 ratio, rep 1 | nuclear/cytoplasmic p65 ratio, rep 2 | low cell count flag | Outcome |
| --- | --- | --- | --- | --- | --- |
| Aoc2 | -0.98 | 1.42 | 1.58 | enough cells to score | inactive |
| Celsr1 | – | 1.44 | 1.63 | fewer than 50 cells per well; well left out of scoring | inactive |
| Ikbkb | 0.68 | 2.79 | 1.46 | enough cells to score | inactive |
| Acaa1b | -1.56 | 1.42 | 1.36 | enough cells to score | inactive |
| Camk1g | 0.31 | 1.75 | 1.42 | enough cells to score | inactive |
| Mpl | -0.26 | 1.4 | 1.32 | enough cells to score | inactive |
| P3h4 | -0.36 | 1.39 | 1.49 | enough cells to score | inactive |
| Id2 | 0.14 | 1.44 | 1.41 | enough cells to score | inactive |
| Tom1l2 | -0.71 | 1.28 | 1.44 | enough cells to score | inactive |
| Pqbp1 | – | 1.47 | 1.32 | fewer than 50 cells per well; well left out of scoring | inactive |
| Cacna1a | -0.61 | 1.49 | 1.56 | enough cells to score | inactive |
| Clec9a | -0.66 | 1.35 | 1.45 | enough cells to score | inactive |
| Pip | 1.33 | 1.58 | 1.34 | enough cells to score | inactive |
| Wrap73 | 0.48 | 1.64 | 1.62 | enough cells to score | inactive |
| Bag1 | 0.14 | 1.71 | 1.56 | enough cells to score | inactive |
| Det1 | – | 1.39 | 1.35 | fewer than 50 cells per well; well left out of scoring | inactive |
| Efna4 | 0 | 1.48 | 1.35 | enough cells to score | inactive |
| C530043K16Rik | 0.62 | 1.56 | 1.57 | enough cells to score | inactive |
| Rad54l | 0.19 | 1.63 | 1.46 | enough cells to score | inactive |
| Spdef | -0.75 | 1.4 | 1.49 | enough cells to score | inactive |
| Golga4 | -0.34 | 1.46 | 1.53 | enough cells to score | inactive |
| Tktl2 | – | 1.37 | 1.61 | fewer than 50 cells per well; well left out of scoring | inactive |
| Skint4 | -0.98 | 1.3 | 1.4 | enough cells to score | inactive |
| Arhgef3 | -0.27 | 1.62 | 1.53 | enough cells to score | inactive |

An excerpt from above, reduced to “p65 translocation robust z-score”:
Camk1g	0.31
Mpl	-0.26
P3h4	-0.36
Id2	0.14
